Measured values taken from article doi:10.1101/709485 (bioRxiv, 2019).
Results are given in words; binding and its absence hold for the method and conditions named. Some results given as binding are weak or reduced against the parent protein; the word gives no strength.

Protein sequences, listed by entry. Tags and fused reporters are not part of them. Residues count along the entry.
UniProt O96017, residues 64-212: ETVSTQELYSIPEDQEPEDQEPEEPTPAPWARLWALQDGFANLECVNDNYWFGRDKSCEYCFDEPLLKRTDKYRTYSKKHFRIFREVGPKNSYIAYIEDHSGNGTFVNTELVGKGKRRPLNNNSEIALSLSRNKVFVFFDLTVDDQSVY
UniProt P08393, residues 55-74: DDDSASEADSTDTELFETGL

Target: Chk2-FHA domain (aa:64-212) (UniProt O96017)
Assay: NMR titration

## ICP0-FBM peptide, phosphorylated at Thr67 (FHA Binding Motif, aa: 55-74) (from UniProt P08393 55-74)
  binding: binds
